According to US20140294873A1, “SMALL MOLECULE SCREEN FOR INHIBITORS OF NFAT: AP-1: DNA INTERACTIONS” (CHILDREN'S MEDICAL CENTER CORPORATION, priority 2011, published 2014):
The exact form of at least one protein or probe is not confirmed.

Test system: Fos bZIP (I142C, Oregon Green 488) / Jun bZIP heterodimer (AP-1)
Experiment: competition with a labelled probe
Conditions: purified recombinant protein; protein details: Oregon Green 488-maleimide on Fos Cys142

Sequence: TCTCCTATGACTCATCC (double strand) [consensus AP-1 oligo]
- binding result: binds
